This note sets out measurements from PMC7819943, “Rice protein-binding microarrays: a tool to detect cis-acting elements near promoter regions in rice”.

The list shows a part of the results.

The target of this test is T1, OsSMF1 (Oryza sativa, UniProt Q6ZLB0 1-436).
T1 sequence: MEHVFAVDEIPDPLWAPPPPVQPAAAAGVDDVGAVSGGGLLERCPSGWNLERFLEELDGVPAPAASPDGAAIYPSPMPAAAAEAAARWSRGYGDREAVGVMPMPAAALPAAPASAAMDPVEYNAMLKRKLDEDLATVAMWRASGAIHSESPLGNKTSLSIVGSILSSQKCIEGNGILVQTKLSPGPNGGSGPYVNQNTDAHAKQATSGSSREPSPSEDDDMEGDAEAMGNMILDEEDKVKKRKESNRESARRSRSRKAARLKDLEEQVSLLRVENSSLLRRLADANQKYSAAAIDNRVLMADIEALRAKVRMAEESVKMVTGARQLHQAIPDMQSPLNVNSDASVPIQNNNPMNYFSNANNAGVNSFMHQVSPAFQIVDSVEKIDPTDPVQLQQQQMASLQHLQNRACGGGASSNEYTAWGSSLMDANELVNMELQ
The experiment in a line: protein-binding microarray (RPBM); PBS, 2% BSA, 51.3 ng/ul salmon testes DNA, 50 uM zinc acetate, 200 nM TF, 25 C, 1 h; high values mean tight binding. Conditions: protein: recombinant; tags: N-terminal polyhistidine and DsRed monomer fusion (pET32a); chain copies: 2; label: CyDye5-dUTP incorporated in the synthesized complementary strand; 3' TTTTT single-stranded linker to array surface; dsDNA, one strand shown. In a few lines:
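Ni–NTA purification followed expression in E. coli BL21-CodonPlus of transcription factors fused N-terminally to a polyhistidine tag and DsRed. At 200 nM in PBS with 2% BSA, salmon testes DNA and 50 µM zinc acetate, the protein was incubated for 1 h at 25 °C with a custom Agilent array that had been primer-extended with Cy5-dUTP and blocked with 2% BSA. After washing, the array was read on an Axon 4000B scanner. The binding signal is per-feature fluorescence intensity in arbitrary units.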
In the case of “CTAGGTCATCGATATGGGACGAGCCACGCACGCTAGAATACGGAGTCACCTAGTGCAG”, the binding signal was 3800 fluorescence intensity (a.u.).
Next, “CATTTAAAGTGGATAACTGATGAGGTGTCCTGCCATAATACGGAGTCACCTAGTGCAG”: 3980 fluorescence intensity (a.u.); “TTGGCGTGTGGATGTGTGCGTAACGGCTAATTTGGTTCGGCGGAGTCACCTAGTGCAG”: 3350 fluorescence intensity (a.u.); “ACCATATATACTCCCTCTATTTCAAAATGTTTGACACCGTCGGAGTCACCTAGTGCAG”: 3340 fluorescence intensity (a.u.).
Consider “CCTTTTGTCTCAGCCCACTAGATACGTCATCTTGGTGGCCCGGAGTCACCTAGTGCAG”, for which the binding signal is 5200 fluorescence intensity (a.u.).
Next, “GTATATAGGTGGCCAACTCGTTCCTCTGTTAATAACCAATCGGAGTCACCTAGTGCAG”: 3300 fluorescence intensity (a.u.); “GTTCTGTGAGAAATTTTGTTGTTAAATTTGTAGTTTTGTGCGGAGTCACCTAGTGCAG”: 3510 fluorescence intensity (a.u.).
Next, “AAGTGACTCCCACCCTCGACCCTTCCGTCAGCGGGAAATTCGGAGTCACCTAGTGCAG”: 3240 fluorescence intensity (a.u.).
Next, “TTGTGTTACAGAAAACATTCAAACCTTTATCATCAGAGGGCGGAGTCACCTAGTGCAG”: 7190 fluorescence intensity (a.u.); “ATATTCTGATATGTCAATATTATTGTGTATGATTGATTGTCGGAGTCACCTAGTGCAG”: 46700 fluorescence intensity (a.u.); “ACTCATCAGCAATACAAAATGACAGATAGGCACAGTTGTTCGGAGTCACCTAGTGCAG”: 3470 fluorescence intensity (a.u.).
For the sequence “ACACCTAACCTTGACGCGCATACACGTACACGTACGGCGCCGGAGTCACCTAGTGCAG”, the binding signal is 5440 fluorescence intensity (a.u.).
For “CGGCTGAGGGACGGGCGGGAGGAGGTGGTCGGGTACGGGGCGGAGTCACCTAGTGCAG” the value was 4690 fluorescence intensity (a.u.); for “CACAGTCGACGACACCCTCCATCTCCGTCCCTCCCACTCCCGGAGTCACCTAGTGCAG”, 7160 fluorescence intensity (a.u.).
Next, “ATCCACAACGTACACGCACGTAGTACAAGTAGTACTCCATCGGAGTCACCTAGTGCAG”: 3210 fluorescence intensity (a.u.).
For “CCACCTTTTATTTTGCTTCCAAGTACCACGTCACCGCCATCGGAGTCACCTAGTGCAG” the value was 25000 fluorescence intensity (a.u.); for “CACTGCTGTTCCGCCACGTGGCACCCACCCCAATCCGCAGCGGAGTCACCTAGTGCAG”, 7640 fluorescence intensity (a.u.); for “GCGCACCTCCTCCAGCACCTCGGGCACCGTGACGAGGCGGCGGAGTCACCTAGTGCAG”, 4530 fluorescence intensity (a.u.).
Consider “CCACCACTACCGCAGTTGCTTGCTGGCTCATCAACACTGCCGGAGTCACCTAGTGCAG”, for which the binding signal was 3450 fluorescence intensity (a.u.).
For “GATCCTGCATCCAACACGGCATCATAATCATCAGTCATTCCGGAGTCACCTAGTGCAG” the value was 3850 fluorescence intensity (a.u.); for “TAATGTCGTGCCGTATGAGCAATGGTGACTGGCGAGCCAACGGAGTCACCTAGTGCAG”, 3900 fluorescence intensity (a.u.).
For “AAGCATGCCCTAGAAGATGGCCACCAGTCCTGGAGCCAGTCGGAGTCACCTAGTGCAG” the value was 4860 fluorescence intensity (a.u.).
For “ATAGCTACCTACTATGCCGCGTAACTATTATGTGCACCGTCGGAGTCACCTAGTGCAG” the value was 3180 fluorescence intensity (a.u.); for “TGGCCCGGGCCACTACCCGCGCCGCCCCGTCGCCGACCTGCGGAGTCACCTAGTGCAG”, 3340 fluorescence intensity (a.u.); for “TTTTGGATCCAACGTCCCATATCAGCGCGCGTCCCACACCCGGAGTCACCTAGTGCAG”, 4310 fluorescence intensity (a.u.).
Take “GACCGCTCCACTCCCCTCTCCCTTCCCCTTTTCGGCATGTCGGAGTCACCTAGTGCAG”: the binding signal is 3500 fluorescence intensity (a.u.).
For “ATAGCAGCTGTCATCTCCAAATCATTGGAAGCCGGCCTCACGGAGTCACCTAGTGCAG” the value was 3840 fluorescence intensity (a.u.).
Next, “AGCATAAACAAGGTCAAGAATGACGTCAGACATACTCCAACGGAGTCACCTAGTGCAG”: 19600 fluorescence intensity (a.u.).
Next, “GACAACGTCGATGACTGCCGTGACGATGATGGCGGCGACGCGGAGTCACCTAGTGCAG”: 4860 fluorescence intensity (a.u.); “GCGGCTAGTTCTCCATCGAAAACGTTTTCTCGGCTACGTGCGGAGTCACCTAGTGCAG”: 3180 fluorescence intensity (a.u.); “ACAGGGCTTGGAATAGGTTGGTGTACAGGGCGGTAGCTTACGGAGTCACCTAGTGCAG”: 3850 fluorescence intensity (a.u.).
Consider “ACAGGCCCACCAGCCCATATAACATATGCCACGTCACCGACGGAGTCACCTAGTGCAG”, for which the binding signal was 26800 fluorescence intensity (a.u.).
For “GCCGGCGGGGAGGGAGGTCCGGAGGAAGTGAAATGGCGGCCGGAGTCACCTAGTGCAG” the value was 3170 fluorescence intensity (a.u.).
Next, “GAGTGTACCGTCTTAGCGGGACTCCTACTAAGGAAGCCTACGGAGTCACCTAGTGCAG”: 30500 fluorescence intensity (a.u.); “TAATTCTGCATGTGCACTCTGCTGACACAGTTCTACTTATCGGAGTCACCTAGTGCAG”: 3420 fluorescence intensity (a.u.); “AACATCATATATTGATGATTATTTGCTGCATAAGGAGATGCGGAGTCACCTAGTGCAG”: 4070 fluorescence intensity (a.u.).
Consider “CGCCACCGGGCTTACAACACCACCACGGAGCAAAGACTGTCGGAGTCACCTAGTGCAG”, for which the binding signal was 3640 fluorescence intensity (a.u.).
Regarding “CTCCGCCCTCCGCCGCCTCCGTTGCCAACCGCCACCGTCCCGGAGTCACCTAGTGCAG”, the binding signal was 4990 fluorescence intensity (a.u.).
For “CACGCAGTCACTCACGCTCGCCGCCAGCACACACCTCCGTCGGAGTCACCTAGTGCAG” the value was 4200 fluorescence intensity (a.u.); for “CCGTCGTCGCTCCGAAGAAGGATGAAGGCGTCACGGGCGACGGAGTCACCTAGTGCAG”, 3230 fluorescence intensity (a.u.); for “CCCACAGAGGAGGGGCGCGCCAGCCATGCTGGCGCCGTGGCGGAGTCACCTAGTGCAG”, 3140 fluorescence intensity (a.u.).
As for “TGCCCTGGACGCGCTTGGCCGTCGATGTCATCATGGACGCCGGAGTCACCTAGTGCAG”, the binding signal was 5570 fluorescence intensity (a.u.).
